Here are results for 108 sequences from PubChem BioAssay AID1508600 (Functional Genomics Laboratory (NCATS/FGL), 2020).

In all, about 53,000 sequences went through this assay and about 3,700 (7%) were called active.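 How the source made its calls: active means gene knockdowns whose robust z-score for IL-1 alpha signal is at least 2 or at most -2, so actives lie on both sides; inactive means the rest.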 The list shows a part of the results.

A short description of this assay: Components of the Cytosolic LPS Sensing Pathway: Gene Identification via Genome-wide siRNA Screen.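 Further: robust z of the log signal after scaling to non-targeting control siRNA wells of the plate.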 The settings on record: RAW264.7 macrophages, IL-1a HTRF, actives lie on both sides, screened at 100 nM (by protocol), cells primed 5 h with Pam3CSK4 first. In short, it runs like this: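 Three distinct siRNAs per gene were tested singly at 100 nM in RAW264.7 macrophages. Following Pam3CSK4 priming and 24 hour LipidA transfection, IL-1a secretion was read by HTRF.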
GCCUCAUGUUGACAGUGUCTT against Alkbh7: the z-score is inactive: 1.38.

Regarding CCUCCAGGUGUUGAUCUGUTT against Btbd11, the z-score is inactive: -0.186.

Regarding GGAGACUUGAAAACAAUUATT against Brd2, the z-score was inactive: -0.398.

In the case of CGCCAUGAAUGUGAUUGGATT against Myo1e, the z-score was inactive: -0.923.

On to CCACCCUAAUCCAUUUUUGTT against Baz2b, for which the z-score is inactive: -0.885.

Turning to GCUAUGUCAUGGUUGGAACTT against Bag6, the z-score is inactive: 0.597.

UUGAGAGGCAAAGAGUGGUTT against Olfr1166: the z-score was inactive: -0.186.

With GGGUGAGCCUUCCUGAAAATT against Pcdhgb4, the z-score is inactive: -0.0878.

Regarding CCUACAAGACUGUCUCUGGTT against Atp6v1b2, the z-score is inactive: -1.18.

For the sequence GGUCCUGGACAAAGUGUUUTT against Tubgcp5, the z-score was active: 2.48.

As for GCACUAGCACACACGAUUUTT against Upp1, the z-score was inactive: -0.012.

GAUCUCAGCGGUUCUAUAGTT against Yipf4: the z-score was inactive: -0.196.

Turning to GGCUGUUUGGCUUGUUUAATT against Golga7, the z-score is inactive: 1.82.

As for GGUAGGCUAAAUAAAGAAGTT against Cisd2, the z-score is inactive: 0.166.

Regarding CCCGAAUUGACAACAUCGUTT against Olfr855, the z-score was inactive: 0.566.

On to GGCACUGGAAAUAAAACCCTT against S100a14, for which the z-score was inactive: -0.766.

Consider GGAAGACUACGAUCAAUGGTT against Pafah2, for which the z-score is inactive: 1.55.

For GGAAUGUUGACUUAAAGGATT against Crot, the z-score was inactive: 0.709.

In the case of GGACAAGACCAGCAAAUACTT against Six6, the z-score is inactive: -1.58.

As for GGCUUUGUAUUUGUUUAUGTT against Gdap1, the z-score was inactive: -0.296.

CCCAAUACAUGAGCUUCUGTT against Ch25h: the z-score is inactive: -0.209.

Regarding GCUUAUUCCCAUAAAUAGATT against Slc9b1, the z-score is inactive: 0.538.

For GCAGCAGGAUUUCUCCAUUTT against Mlx, the z-score was inactive: -1.35.

GGUCAUCUCAGACCUCCUCTT against Pde6a: the z-score is inactive: -0.275.

On to GGCUGCUCAAAAAGAACAUTT against Kif21b, for which the z-score was inactive: 0.645.

As to GCUCUCAUUAGCAUUAUCGTT against Gria1, the z-score was inactive: 0.21.

With GGCUAUAAUGAACCAGCUGTT against Ubr3, the z-score was inactive: -0.208.

As to GCUUGAGGAAUUUACGGCGTT against Cetn3, the z-score is inactive: -0.0998.

With CCCUAGUUUAUCUCCGGAUTT against Lhx1, the z-score was inactive: 1.15.

In the case of GCUACAUUUCUACUCAAAGTT against Dkk2, the z-score was inactive: 0.324.

Take GGGAACUCGACAAAGAAAUTT against Cfap61: the z-score was inactive: 0.579.

With GGCUCUGAACGUAUCCUACTT against Card10, the z-score is inactive: -0.474.

Turning to GGCUUUUCUAUGUUUGAGATT against Pde6d, the z-score is inactive: 0.107.

For the sequence CCACUGCUUAAUCCUAUGATT against Olfr741, the z-score was inactive: -1.47.

As for GGUGGCUAGUUUUAUUACUTT against Thtpa, the z-score is inactive: -0.296.

Regarding CCUACUCUCUCGUAGACUCTT against Rragb, the z-score is inactive: -0.697.

For the sequence GGCCAGGAGAAGAAGAUACTT against Tet2, the z-score was inactive: -0.261.

Consider GGGCUCCUGUCUAAAGGAATT against Cd200r2, for which the z-score is inactive: -0.127.

Consider GGAGUCCUUGGGAUAAUAATT against Zfp300, for which the z-score is inactive: -1.67.

As for GGUAGAGUUGGCUUUAUGGTT against Rhoa, the z-score was inactive: 0.682.

For the sequence GGGUUAUAAGAAAAAGUACTT against Krt82, the z-score was inactive: -1.14.

As to GCUGAAUUCAUUCAUAGCCTT against Cyp2d26, the z-score is inactive: -0.55.

Regarding GGGAAAUAAGUCUCGAACGTT against Kif13a, the z-score was inactive: 0.554.

In the case of GGGUGUUCCUAUCUCCUUCTT against Angptl6, the z-score was inactive: -0.161.

Regarding GCCAAGGUGGAAUUUUUGGTT against Gpx8, the z-score was inactive: 0.139.

For CCUAUCUUCCUGAAUACAUTT against Aqp7, the z-score was active: 2.71.

Consider GGAUGAGGAUGACUUUGAGTT against Tnk2, for which the z-score is inactive: 0.584.

Regarding GGUUCCACUCAACUGAAGATT against Actl7b, the z-score is inactive: -0.123.

Regarding GCAAAUGGAUCACAGGCCUTT against Nle1, the z-score was inactive: 0.527.

On to GCUACGUUUACUGACCACATT against Bcat1, for which the z-score was inactive: 1.55.

As for CGGCUUCCCAAAAGAUGUGTT against Aire, the z-score is inactive: -1.72.

Take GGAGCUAUGGCUCAUACAUTT against Spire1: the z-score was inactive: 1.76.

Turning to GGUGUUGUUUCGAAUUAUUTT against Xrn1, the z-score is inactive: 0.44.

Take CGUGGACGGAAAUGUUAAUTT against Trpc3: the z-score is inactive: -0.29.

In the case of GGAUUUUUGUGCAGAGUUATT against Hykk, the z-score is inactive: -0.834.

As to GGAAAAAAAAAUGUCCUUGTT against Rit2, the z-score is inactive: -0.0059.

In the case of GGACCAGCUUUUUAAUGUUTT against Prpsap2, the z-score is inactive: 0.373.

For the sequence GGCAUUUGGUCUUCAUAAATT against Gask1b, the z-score was inactive: -0.58.

CGGAUGAAAGUGUCUUGAUTT against Slbp: the z-score is inactive: -0.363.

Consider GGAAGAACACAAAACUGACTT against Cdkn1b, for which the z-score is inactive: -0.463.

Consider GGAAAGACCACCAAAUCCCTT against Dpy30, for which the z-score is inactive: 1.48.

For the sequence CGAUGGUGUUUUUUGGCUATT against Svopl, the z-score is inactive: -0.366.

On to GGAAGGACAGUCUGCUCAUTT against Ripor1, for which the z-score was inactive: -0.91.

For GGAGCUGUUUCUGUUAUUGTT against F8a, the z-score was inactive: -0.35.

With GGGCACAUAUAAACUUAUUTT against Dnaic1, the z-score is inactive: 0.253.

GCGCAUACCUGUGUGUCAUTT against Tyk2: the z-score was inactive: -0.0474.

Regarding “CGUACUUGCCUAUGUAUAGTT against A830031A19Rik”, the z-score is inactive: -0.66.

As to GCUCUAAGGGCUGUUGCUATT against Cep20, the z-score is inactive: 1.74.

Regarding GGGAUUUUUGAAACUGAAGTT against Glod4, the z-score is active: -2.78.

Turning to GGUACUGUUUGCAUUUAUUTT against Ormdl1, the z-score is inactive: 0.534.

As for GCUAAUACGAUUUACUUUGTT against Cntn6, the z-score is inactive: 0.586.

GCUAAUAUUAGGCUACAUCTT against Evi2a: the z-score is inactive: -0.508.

Take CGCACUGAGUCUGAAUAUGTT against Hibch: the z-score is inactive: -0.463.

Consider GGAAAUCACAGAAGGAGAUTT against Fxr2, for which the z-score was inactive: -1.17.

Regarding GCACUAAUCAAUAUCUAGGTT against Klf8, the z-score is inactive: 0.693.

For the sequence GGUCAAAAACCACAGAAUATT against Mob1a, the z-score is inactive: 0.631.

As to CGAAAUGCCUGAAAACUUCTT against Palmd, the z-score is inactive: 1.61.

Take GCCACUCCAUAUGCCAUAGTT against Brsk2: the z-score is inactive: 1.7.

With GGACACCAAAAAGAAAGAATT against Ehd3, the z-score was inactive: -0.532.

In the case of GCUGUUAUUUAGGUUUCAGTT against Cxcl2, the z-score is inactive: 0.521.

For GGUAAUAGGCAAAGAUUUATT against Hdac9, the z-score was inactive: 0.777.

For GGAGGAGAACACCUUGAAUTT against Trpc1, the z-score is inactive: 0.0324.

For the sequence CCCUCACAAUGAUCGAUUUTT against Tkt, the z-score was inactive: -0.885.

Turning to GGUGAUACCAUCACUUUGATT against Mark2, the z-score was inactive: 0.173.

Regarding GGACGAAUUCUGAUGUCUATT against Nenf, the z-score is inactive: -0.356.

CGAUAUGUGUUUGUAAUGGTT against Atp6v1d: the z-score is inactive: -0.853.

With GGACAGAUUACAUCACUUCTT against Gemin2, the z-score is inactive: -1.85.

Consider GGUCCCAGUCAUUAUCCACTT against Gdap1l1, for which the z-score is active: 2.43.

GGAGCAGAAAAUCGUUGUGTT against Rpl34: the z-score is inactive: 1.37.

For the sequence GGGAUCAAGGCUAGAAGAGTT against AY702102, the z-score is inactive: 0.623.

For CCGUUGUAUAUACCAGUAUTT against Syt1, the z-score is inactive: 0.218.

For the sequence GCACAACUCUGUUCUGUUGTT against Olfr491, the z-score was inactive: -0.481.

Take GCAUUGGUGUUUAGUUGGUTT against Gdf2: the z-score was inactive: 1.11.

As for GCUGAGUUAUCGUUUAUGATT against Cldn18, the z-score is inactive: -0.259.

As to GGUACACUGCUUAUUGGUATT against Olfr857, the z-score was inactive: 0.761.

With GGGACGAUGACAAGAACAATT against Mcfd2, the z-score is inactive: 1.19.

Turning to GGUGUUAGAAAGAGACCAGTT against Vamp3, the z-score is inactive: 0.725.

As for GGCCCAGGAGAUUUUCCAATT against Proc, the z-score was inactive: 1.71.

With GGUUGUUUUGGAAUUGAUATT against Smu1, the z-score is active: -2.82.

In the case of GGUGCGAGUGGAAUUCAUGTT against Rps28, the z-score is inactive: 0.39.

Consider GGGUUUUGUCUUAAUGAAUTT against Scn10a, for which the z-score was inactive: -0.478.

Take GCAUGACAAAUCUAAAAAGTT against Pcdh7: the z-score was inactive: -0.137.

Consider GGCUUAGGUGCCACAUUCUTT against Ggt6, for which the z-score is inactive: 0.414.

For GCCUGUAGCAGAGAACUUUTT against Tmem59l, the z-score was inactive: 1.1.

On to CCGUGAAUAAGGUCAUCUUTT against Prss39, for which the z-score is inactive: 0.22.

With GUUGGAGGAGAAACUCUGGTT against Hbb-bh1, the z-score is inactive: 1.03.

On to GGAAUUGAUUACUAUUACCTT against Ecpas, for which the z-score was inactive: 1.97.

With CCUUGGUGUGCAUUGGAUGTT against Fbxo15, the z-score is inactive: -1.7.
